The list does not hold the whole screen: it covers a few groups of compounds. Other doses and runs of a compound may be missing. T/C gives the treated animals as a percentage of the vehicle group. Where survival is the endpoint, this PubChem deposit counts one and a half times the control or more as active, and values a quarter to a half above the control carry no call in these data; other NCI protocols may use other cut-offs. Some T/C values are marked as having no survivor count here; that says nothing about deaths at the dose. Schedule codes are those of the source, read here as Q, the interval in days (D) or hours (H), X, the number of doses. Additions like (4×) count equal records among those shown. Some entries hold several experiments; the values are given in rising order.
Tested on: BDF1 mice, P388 leukemia ip, median survival T/C
Assay: NCI In Vivo Anticancer Drug Screen. Data for tumor model P388 Leukemia (intraperitoneal) in B6D2F1 (BDF1) mice
Conditions: T/C endpoint: median survival time, higher T/C = longer survival
Procedure: The antitumor activity of compounds was measured in mice bearing transplantable tumors. Survival or tumor size were measured and the results are expressed as the measurement made in the treated group (T) divided by the measurement made in the vehicle treated control group (C). The tumor model used in this assay is P388 Leukemia (intraperitoneal) in B6D2F1 (BDF1) mice

[1] = dose: 50.0 mg/kg/injection, schedule: Q01DX009 (ip), vehicle: saline with Tween-80

Question: Which results are given for Cc1ccc(CN(CCCl)CCCl)cc1C?
Answer: T/C (dose: 0.44 mg/kg/injection, schedule: Q01DX009 (ip), vehicle: saline): 92 % of control [survivor count not shown]; T/C (dose: 0.66 mg/kg/injection, schedule: Q01DX009 (ip), vehicle: saline): 100 % of control [survivor count not shown]; T/C (dose: 1.0 mg/kg/injection, schedule: Q01DX009 (ip), vehicle: saline): 117 % of control [survivor count not shown]; T/C (dose: 1.5 mg/kg/injection, schedule: Q01DX009 (ip), vehicle: saline): 142 % of control [survivor count not shown]; T/C (dose: 1.78 mg/kg/injection, schedule: Q04DX003 (ip), vehicle: saline): 116 % of control [survivor count not shown]; T/C (dose: 2.66 mg/kg/injection, schedule: Q04DX003 (ip), vehicle: saline): 137 % of control [survivor count not shown]; T/C (dose: 3.3 mg/kg/injection, schedule: Q01DX009 (ip), vehicle: saline): 154 % of control [survivor count not shown]; T/C (dose: 4.0 mg/kg/injection, schedule: Q04DX003 (ip), vehicle: saline): 133 % of control [survivor count not shown]; T/C (dose: 4.4 mg/kg/injection, schedule: Q04DX003 (ip), vehicle: saline): 172 % of control [survivor count not shown]; T/C (dose: 5.0 mg/kg/injection, schedule: Q01DX009 (ip), vehicle: saline): 159 % of control [survivor count not shown]; T/C (dose: 6.0 mg/kg/injection, schedule: Q04DX003 (ip), vehicle: saline): 137 % of control [survivor count not shown]; T/C (dose: 6.25 mg/kg/injection, schedule: Q04DX003 (ip), vehicle: saline): 131 % of control [survivor count not shown]; T/C (dose: 6.6 mg/kg/injection, schedule: Q04DX003 (ip), vehicle: saline): 154 % of control [survivor count not shown]; T/C (dose: 7.5 mg/kg/injection, schedule: Q01DX009 (ip), vehicle: saline): 177 % of control [survivor count not shown]; T/C (dose: 10.0 mg/kg/injection, schedule: Q04DX003 (ip), vehicle: saline): 159 % of control [survivor count not shown]; T/C (dose: 11.3 mg/kg/injection, schedule: Q01DX009 (ip), vehicle: saline): 204 % of control [survivor count not shown]; T/C (dose: 12.5 mg/kg/injection, schedule: Q04DX003 (ip), vehicle: saline): 154 % of control [survivor count not shown]; T/C (dose: 15.0 mg/kg/injection, schedule: Q04DX003 (ip), vehicle: saline): 181 % of control [survivor count not shown]

Question: What does the source list for S=P(Cl)(Cl)N(CCCl)CCCl?
Answer: T/C (dose: 6.25 mg/kg/injection, schedule: Q01DX009 (ip), vehicle: saline with Tween-80): 104 % of control [survivor count not shown]; T/C (dose: 12.5 mg/kg/injection, schedule: Q01DX009 (ip), vehicle: saline with Tween-80): 112 % of control [survivor count not shown]; T/C (dose: 25.0 mg/kg/injection, schedule: Q01DX009 (ip), vehicle: saline with Tween-80): 104 % of control [survivor count not shown]; T/C [1]: 108 % of control [survivor count not shown]; T/C (dose: 100.0 mg/kg/injection, schedule: Q04DX003 (ip), vehicle: other): 100 % of control [survivor count not shown]

Question: For OCC#CCN(CCCl)CCCl, which T/C (dose: 0.5 mg/kg/injection, schedule: Q01DX009 (ip), vehicle: saline) is on record?
Answer: 154 % of control [survivor count not shown]

Question: What about the T/C (dose: 0.9 mg/kg/injection, schedule: Q04DX003 (ip), vehicle: saline) of the same molecule?
Answer: 150 % of control [survivor count not shown]

Question: And the T/C (dose: 1.5 mg/kg/injection, schedule: Q04DX003 (ip), vehicle: saline)?
Answer: 158 % of control [survivor count not shown]

Question: And the T/C (dose: 2.0 mg/kg/injection, schedule: Q01DX009 (ip), vehicle: saline)?
Answer: 272 % of control [survivor count not shown]

Question: What about the T/C (dose: 2.25 mg/kg/injection, schedule: Q04DX003 (ip), vehicle: saline) of the same molecule?
Answer: 204 % of control [survivor count not shown]

Question: What does the source list for ClCCN(CCCl)c1ccc(Oc2ccccc2)cc1?
Answer: T/C (dose: 8.8 mg/kg/injection, schedule: Q01DX009 (ip), vehicle: saline with Tween-80): 114 % of control [survivor count not shown]; T/C (dose: 13.3 mg/kg/injection, schedule: Q01DX009 (ip), vehicle: saline with Tween-80): 97 % of control [survivor count not shown]; T/C (dose: 20.0 mg/kg/injection, schedule: Q01DX009 (ip), vehicle: saline with Tween-80): 106 % of control [survivor count not shown]; T/C (dose: 22.0 mg/kg/injection, schedule: Q01DX009 (ip), vehicle: saline with Tween-80): 98 % of control [survivor count not shown]; T/C (dose: 29.3 mg/kg/injection, schedule: Q01DX009 (ip), vehicle: other): 171 % of control [survivor count not shown]; T/C (dose: 30.0 mg/kg/injection, schedule: Q01DX009 (ip), vehicle: saline with Tween-80): 100 % of control [survivor count not shown]; T/C (dose: 33.0 mg/kg/injection, schedule: Q01DX009 (ip), vehicle: saline with Tween-80): 103 % of control [survivor count not shown]; T/C (dose: 44.0 mg/kg/injection, schedule: Q01DX009 (ip), vehicle: other): 131 % of control [survivor count not shown]; T/C [1]: 122 % of control [survivor count not shown]; T/C (dose: 66.0 mg/kg/injection, schedule: Q01DX009 (ip), vehicle: other): 164 % of control [survivor count not shown]; T/C (dose: 100.0 mg/kg/injection, schedule: Q01DX009 (ip), vehicle: other): 145 [survivor count not shown] and 164 % of control [survivor count not shown]; T/C (dose: 200.0 mg/kg/injection, schedule: Q01DX009 (ip), vehicle: other): 175 % of control [survivor count not shown]; T/C (dose: 400.0 mg/kg/injection, schedule: Q01DX009 (ip), vehicle: other): 100 % of control [survivor count not shown]

Question: For NC(Cc1ccccc1N(CCCl)CCCl)C(=O)O (stereo not drawn), which T/C (dose: 0.25 mg/kg/injection, schedule: Q01DX010 (ip), vehicle: saline) is on record?
Answer: 200 [survivor count not shown] and 227 % of control [survivor count not shown]

Question: What about the T/C (dose: 0.5 mg/kg/injection, schedule: Q01DX010 (ip), vehicle: saline) of the same molecule?
Answer: 204 [survivor count not shown] and 268 % of control [survivor count not shown]

Question: And the T/C (dose: 1.0 mg/kg/injection, schedule: Q01DX010 (ip), vehicle: saline)?
Answer: 300 % of control [survivor count not shown] (2×)

Question: What about the T/C (dose: 2.0 mg/kg/injection, schedule: Q01DX010 (ip), vehicle: saline) of the same molecule?
Answer: 113 [survivor count not shown] and 133 % of control [survivor count not shown]

Question: Which results are given for NC(Cc1cccc(N(CCCl)CCCl)c1)C(=O)O (stereo not drawn)?
Answer: T/C (dose: 0.31 mg/kg/injection, schedule: Q01DX010 (ip), vehicle: saline): 200 [survivor count not shown] and 300 % of control [survivor count not shown]; T/C (dose: 0.62 mg/kg/injection, schedule: Q01DX010 (ip), vehicle: saline): 235 [survivor count not shown] and 245 % of control [survivor count not shown]; T/C (dose: 0.63 mg/kg/injection, schedule: Q01DX010 (ip), vehicle: saline): 190 [survivor count not shown] and 204 % of control [survivor count not shown]; T/C (dose: 1.25 mg/kg/injection, schedule: Q01DX010 (ip), vehicle: saline): 240 [survivor count not shown] (2×), 245 [survivor count not shown], 300 % of control [survivor count not shown]; T/C (dose: 2.5 mg/kg/injection, schedule: Q01DX010 (ip), vehicle: saline): 175 [survivor count not shown], 254 [survivor count not shown], 260 [survivor count not shown], 300 % of control [survivor count not shown]; T/C (dose: 5.0 mg/kg/injection, schedule: Q01DX010 (ip), vehicle: saline): 120 [survivor count not shown], 155 [survivor count not shown], 300 % of control [survivor count not shown]

Question: Which T/C (dose: 100.0 mg/kg/injection, schedule: Q04DX003 (ip), vehicle: saline with Tween-80) does the source give for NC1CCCCC1.O=P(O)(NC1CCCCC1)N(CCCl)CCCl here?
Answer: 95 % of control [survivor count not shown]

Question: What about the T/C (dose: 200.0 mg/kg/injection, schedule: Q04DX003 (ip), vehicle: saline with Tween-80) of the same molecule?
Answer: 100 % of control [survivor count not shown]
